No constants are given. Whether binding was seen depends on the method and setting. For some assays here: Binding can be weak; no strength is given. For some assays here: Binding seen in cells or lysates may run through a third protein. For some assays here: Sequences can lack the tags named with a protein.
What was measured:
[1] = molecular target: T1, NH2 (rice (Nipponbare)) (UniProt Q0JJ01); test: two-hybrid; LexA fusion (written as target) and B42AD fusion (written as binder) in yeast EGY48; beta-galactosidase on X-gal medium, blue colour graded +++ to –; at least three colonies
T1 sequence: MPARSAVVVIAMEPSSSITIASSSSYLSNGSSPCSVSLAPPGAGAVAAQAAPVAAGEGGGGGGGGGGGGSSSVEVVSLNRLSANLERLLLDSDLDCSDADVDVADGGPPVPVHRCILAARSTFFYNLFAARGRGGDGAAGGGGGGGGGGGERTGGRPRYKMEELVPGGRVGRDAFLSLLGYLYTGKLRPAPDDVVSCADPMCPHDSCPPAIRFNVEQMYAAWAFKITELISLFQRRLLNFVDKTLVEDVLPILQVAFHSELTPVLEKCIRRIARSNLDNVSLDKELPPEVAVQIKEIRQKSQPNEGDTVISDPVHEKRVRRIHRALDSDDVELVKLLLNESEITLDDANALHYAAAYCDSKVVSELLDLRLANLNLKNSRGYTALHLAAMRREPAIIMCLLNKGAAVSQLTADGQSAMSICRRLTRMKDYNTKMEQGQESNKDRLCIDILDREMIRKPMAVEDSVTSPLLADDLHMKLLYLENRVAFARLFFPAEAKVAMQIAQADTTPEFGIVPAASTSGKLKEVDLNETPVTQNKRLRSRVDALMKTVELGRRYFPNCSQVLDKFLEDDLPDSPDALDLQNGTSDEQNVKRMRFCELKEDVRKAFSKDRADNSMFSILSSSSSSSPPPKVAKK

The chains behind the UniProt entries cited, without tags or fusion partners. Where a name states a change or a piece, a line headed by the entry shows the natural chain unless it says otherwise.
UniProt Q5ZEF1: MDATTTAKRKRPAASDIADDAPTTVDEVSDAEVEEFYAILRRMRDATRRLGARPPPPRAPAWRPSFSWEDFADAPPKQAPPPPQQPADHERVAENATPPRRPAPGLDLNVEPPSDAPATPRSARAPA
UniProt Q6L589: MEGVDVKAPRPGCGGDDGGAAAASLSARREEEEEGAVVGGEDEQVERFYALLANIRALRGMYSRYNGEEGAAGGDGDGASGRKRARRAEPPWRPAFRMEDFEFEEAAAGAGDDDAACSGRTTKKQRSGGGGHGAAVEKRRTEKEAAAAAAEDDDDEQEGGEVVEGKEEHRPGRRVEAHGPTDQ
UniProt B7F924: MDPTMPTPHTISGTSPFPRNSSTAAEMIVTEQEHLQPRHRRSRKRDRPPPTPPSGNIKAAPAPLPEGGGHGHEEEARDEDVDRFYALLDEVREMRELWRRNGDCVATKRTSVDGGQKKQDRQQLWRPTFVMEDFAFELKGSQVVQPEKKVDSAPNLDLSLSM

[2] = molecular target: T2, NH3 (rice (Nipponbare)) (UniProt Q75HA6); test: as above
T2 sequence: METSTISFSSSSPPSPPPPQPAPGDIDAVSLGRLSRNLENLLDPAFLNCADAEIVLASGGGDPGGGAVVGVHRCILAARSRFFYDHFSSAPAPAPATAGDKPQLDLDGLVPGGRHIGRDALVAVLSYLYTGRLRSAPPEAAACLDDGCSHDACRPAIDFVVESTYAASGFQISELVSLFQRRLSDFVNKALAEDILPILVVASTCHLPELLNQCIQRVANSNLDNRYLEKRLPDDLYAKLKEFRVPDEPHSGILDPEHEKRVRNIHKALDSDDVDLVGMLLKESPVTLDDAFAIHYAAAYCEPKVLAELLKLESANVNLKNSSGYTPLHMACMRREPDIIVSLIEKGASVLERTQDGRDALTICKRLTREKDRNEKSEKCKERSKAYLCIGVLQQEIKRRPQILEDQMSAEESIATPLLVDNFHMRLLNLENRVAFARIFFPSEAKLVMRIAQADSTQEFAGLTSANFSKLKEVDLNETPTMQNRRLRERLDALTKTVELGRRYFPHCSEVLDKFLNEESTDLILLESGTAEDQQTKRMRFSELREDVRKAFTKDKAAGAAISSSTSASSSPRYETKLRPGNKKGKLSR

[3] = molecular target: T3, NH1 (rice (Nipponbare)) (UniProt Q9FDY4); test: as above
T3 sequence: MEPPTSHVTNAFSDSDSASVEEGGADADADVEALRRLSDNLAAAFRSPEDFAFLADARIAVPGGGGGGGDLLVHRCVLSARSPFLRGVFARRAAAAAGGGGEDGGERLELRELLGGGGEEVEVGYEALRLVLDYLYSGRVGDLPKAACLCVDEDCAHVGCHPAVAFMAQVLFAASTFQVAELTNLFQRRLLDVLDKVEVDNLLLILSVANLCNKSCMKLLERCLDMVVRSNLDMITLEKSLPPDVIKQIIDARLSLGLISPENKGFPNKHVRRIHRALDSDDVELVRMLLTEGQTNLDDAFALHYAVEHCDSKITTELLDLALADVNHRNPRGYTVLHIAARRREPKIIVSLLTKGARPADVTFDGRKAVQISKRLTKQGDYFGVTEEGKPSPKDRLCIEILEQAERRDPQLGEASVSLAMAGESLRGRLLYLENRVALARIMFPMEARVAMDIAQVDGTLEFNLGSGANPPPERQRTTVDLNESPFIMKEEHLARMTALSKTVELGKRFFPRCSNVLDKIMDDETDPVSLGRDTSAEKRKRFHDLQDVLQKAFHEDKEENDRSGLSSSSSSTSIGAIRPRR

[4] = molecular target: T4, NH1 (split YFP fusion) (rice (Nipponbare)) (UniProt Q9FDY4); test: split reporter; split YFP in rice protoplasts, 5 ug of each plasmid, 24-36 hr after transfection, fluorescence graded +++ to –; the YFPN fusion is written as binder, the YFPC fusion as target
T4 sequence: T3 sequence

[5] = molecular target: T5, NH3 (split YFP fusion) (rice (Nipponbare)) (UniProt Q75HA6); test: as above
T5 sequence: T2 sequence

[6] = molecular target: T6, NH2 (split YFP fusion) (rice (Nipponbare)) (UniProt Q0JJ01); test: as above
T6 sequence: T1 sequence

Row | Substance | binding [1] | binding [2] | binding [3] | binding [4] | binding [5] | binding [6]
1 | Negative Regulator of Resistance (NRR) (from UniProt Q5ZEF1) | binds | binds | binds |  |  | 
2 | rTGA2.3 (split YFP fusion) (rice (Nipponbare)) |  |  |  | binds | binds | 
3 | TGAL9 (rice (Nipponbare)) | no binding | no binding | no binding |  |  | 
4 | RH1 (split YFP fusion) (rice (Nipponbare)) |  |  |  | binds | binds | 
5 | TGAL1 (split YFP fusion) (rice (Nipponbare)) |  |  |  | binds | binds | 
6 | TGAL1 (rice (Nipponbare)) | binds | binds | binds |  |  | 
7 | rTGA2.3 (rice (Nipponbare)) | binds | binds | binds |  |  | 
8 | TGAL9 (split YFP fusion) (rice (Nipponbare)) |  |  |  | binds |  | no binding
9 | TGAL8 (split YFP fusion) (rice (Nipponbare)) |  |  |  | binds | binds | 
10 | NRR (split YFP fusion) (rice (Nipponbare)) |  |  |  | binds | binds | 
11 | TGAL2 (rice (Nipponbare)) | binds | binds | binds |  |  | 
12 | RH1 (from UniProt Q6L589) | binds | binds | binds |  |  | 
13 | RH2 (split YFP fusion) (rice (Nipponbare)) |  |  |  | binds | binds | 
14 | TGAL2 (split YFP fusion) (rice (Nipponbare)) |  |  |  | binds | binds | 
15 | TGAL11 (split YFP fusion) (rice (Nipponbare)) |  |  |  | binds | binds | 
16 | TGAL6 (rice (Nipponbare)) | binds |  | binds |  |  | 
17 | rTGA2.1 (split YFP fusion) (rice (Nipponbare)) |  |  |  | binds | binds | no binding
18 | rLG2 (split YFP fusion) (rice (Nipponbare)) |  |  |  | binds | binds | no binding
19 | TGAL5 (split YFP fusion) (rice (Nipponbare)) |  |  |  | binds | binds | no binding
20 | TGAL7 (split YFP fusion) (rice (Nipponbare)) |  |  |  | binds | binds | 
21 | rTGA2.2 (split YFP fusion) (rice (Nipponbare)) |  |  |  | binds | binds | 
22 | RH3 (split YFP fusion) (rice (Nipponbare)) |  |  |  | binds | binds | 
23 | TGAL6 (split YFP fusion) (rice (Nipponbare)) |  |  |  | binds | binds | no binding
24 | rTGA2.1 (rice (Nipponbare)) | binds | binds | binds |  |  | 
25 | rTGA2.2 (rice (Nipponbare)) | binds | binds | binds |  |  | 
26 | TGAL4 (split YFP fusion) (rice (Nipponbare)) |  |  |  | binds | binds | no binding
27 | TGAL11 (rice (Nipponbare)) | binds | binds | binds |  |  | 
28 | TGAL4 (rice (Nipponbare)) | binds | binds | binds |  |  | 
29 | RH3 (from UniProt B7F924) | binds | binds | binds |  |  | 
30 | rLG2 (rice (Nipponbare)) | binds | binds | binds |  |  | 
